Assay [1] has as its target C-terminal hemagglutinin (HA)-tagged EGFR (human) (UniProt P00533). In words: co-IP; HEK293T cells transfected with indicated combinations of tagged constructs, Co-IP assay; precipitating antibody not told; with increasing TMEM25 in Fig. 4f.
Assay [2] deals with EGFR, endogenous in MDA-MB-231 cells (human (endogenous in MDA-MB-231)) (UniProt P00533). In words: co-IP; endogenous proteins, MDA-MB-231 cell lysates (TNTE 0.5% Triton X-100 lysis buffer, protein G agarose, 4 °C, 3 h); anti-TMEM25 IP or anti-EGFR IP; wild-type or TMEM25 knockout cells for EGFR with STAT3.
The target of assay [3] is C-terminal Flag-tagged EGFR, full length (F) (human) (UniProt P00533). In words: co-IP; HEK293T cells transfected with tagged constructs; anti-Flag IP followed by immunoblotting; TNTE 0.5% Triton X-100 lysis buffer. On the technique in general: A western blot detects proteins with antibodies after separation by electrophoresis.

Results are given in words; binding and its absence hold for the method and conditions named. Binding seen in cells or lysates may run through a third protein. Some results given as binding are weak or reduced against the parent protein; the word gives no strength. For part of these data: Where a sequence is shown, tags or fusion partners need not be part of it.

B1: TMEM25, overexpressed in HEK293T (Fig. 4f) (protein, UniProt Q86YD3 27-366)
chain: ELEPQIDGQTWAERALRENERHAFTCRVAGGPGTPRLAWYLDGQLQEASTSRLLSVGGEAFSGGTSTFTVTAHRAQHELNCSLQDPRSGRSANASVILNVQFKPEIAQVGAKYQEAQGPGLLVVLFALVRANPPANVTWIDQDGPVTVNTSDFLVLDAQNYPWLTNHTVQLQLRSLAHNLSVVATNDVGVTSASLPAPGLLATRVEVPLLGIVVAAGLALGTLVGFSTLVACLVCRKEKKTKGPSRHPSLISSDSNNLKLNNVRLPRENMSLPSNLQLNDLTPDSRAVKPADRQMAQNNSRPELLDPEPGGLLTSQGFIRLPVLGYIYRVSSVSSDEIWL
B1: the binding result in assay [1] is “binds”.

B2: TMEM25, endogenous in MDA-MB-231 cells (protein, UniProt Q86YD3 27-366)
chain: ELEPQIDGQTWAERALRENERHAFTCRVAGGPGTPRLAWYLDGQLQEASTSRLLSVGGEAFSGGTSTFTVTAHRAQHELNCSLQDPRSGRSANASVILNVQFKPEIAQVGAKYQEAQGPGLLVVLFALVRANPPANVTWIDQDGPVTVNTSDFLVLDAQNYPWLTNHTVQLQLRSLAHNLSVVATNDVGVTSASLPAPGLLATRVEVPLLGIVVAAGLALGTLVGFSTLVACLVCRKEKKTKGPSRHPSLISSDSNNLKLNNVRLPRENMSLPSNLQLNDLTPDSRAVKPADRQMAQNNSRPELLDPEPGGLLTSQGFIRLPVLGYIYRVSSVSSDEIWL
Consider B2, for which the binding result in assay [2] is “binds”.

B3: C-terminal green fluorescent protein (GFP)-tagged TMEM25, full length (F) (protein, UniProt Q86YD3 27-366)
chain: ELEPQIDGQTWAERALRENERHAFTCRVAGGPGTPRLAWYLDGQLQEASTSRLLSVGGEAFSGGTSTFTVTAHRAQHELNCSLQDPRSGRSANASVILNVQFKPEIAQVGAKYQEAQGPGLLVVLFALVRANPPANVTWIDQDGPVTVNTSDFLVLDAQNYPWLTNHTVQLQLRSLAHNLSVVATNDVGVTSASLPAPGLLATRVEVPLLGIVVAAGLALGTLVGFSTLVACLVCRKEKKTKGPSRHPSLISSDSNNLKLNNVRLPRENMSLPSNLQLNDLTPDSRAVKPADRQMAQNNSRPELLDPEPGGLLTSQGFIRLPVLGYIYRVSSVSSDEIWL
For B3, the binding result in assay [3] is reported as “binds”.
